Source: PubChem BioAssay AID493014 (National Center for Advancing Translational Sciences (NCATS), 2011)
This is one part of the list. The main result of the screen is listed elsewhere. These columns were measured beside it and carry no call. The list favours compounds with an active or inconclusive main result. Words in brackets tell the shape of the fitted curve; partial curves, single points and poor fits give uncertain potencies.

Assay: qHTS Assay to Find Inhibitors of Chronic Active B-Cell Receptor Signaling
Conditions: ABC-DLBCL IkBa-CBG/CBR reporter, luminescence ratio (green luciferase fused to IkBa over red control in TMD8 lymphoma cells), 4 h
How it was run: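 Doxycycline induced both beetle luciferases in TMD8 lymphoma cells; IKK-driven degradation limits the IkappaBalpha-fused green signal, while red luminescence normalises for cell number and nonspecific effects. Compounds tested up to 46 uM, 4 hrs.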

[1] = measured here: CBR red luminescence, cell number
[2] = measured here: IkBa-CBG green luminescence

| Compound | AC50 [1] | AC50 [2] |
| --- | --- | --- |
| O=C(CNC(=O)c1ccncc1)N/N=C/c1cc(Br)ccc1OCc1ccccc1 | 35.5 µM [falling, single point] |  |
| COc1ccc(NC(=O)CN(C)C(=O)/C=C/c2cn(Cc3ccccc3)nc2-c2cccnc2)cc1 | 32.6 µM [falling, single point] |  |
| Cc1ccccc1N=Nc1ccc(O)c2ncccc12 | 14.6 µM [rising, partial curve] |  |
| CN(/N=C/c1ccc(O)cc1O)c1ncc(C(F)(F)F)cc1Cl | 10 µM [rising, partial curve] |  |
| O=C(/C=C/Nc1ccccc1F)c1cccs1 | 18.4 µM [falling, partial curve] |  |
| Cc1cc(=O)n2[nH]c(NCc3ccccc3F)nc2n1 | 31.6 µM [falling, partial curve, poor fit] |  |
| Cc1ccc(C)c2[nH]c(=O)c(CN(CC3CCCO3)C(=O)NC3CCCCC3)cc12 (stereo not given) | 0.92 µM [rising, full curve, poor fit] |  |
| COc1ccc(OC)c(NC(=O)c2cnc3n(c2=O)CCS3)c1 | 0.92 µM [rising, full curve, poor fit] |  |
| Cc1nc(-c2ccccc2)sc1C(=O)Nc1ccccc1F | 1.26 µM [rising, full curve, poor fit] |  |
| COc1ccc(-c2nnc(OCc3nc4ccccc4n3C)c3ccccc23)cc1 | 29.1 µM [falling, single point] |  |
| COc1cccc(N=Cc2nc(-c3ccccc3)oc2OC(C)=O)c1 | 35.5 µM [falling, single point] |  |
| COc1ccc(NC(=O)Nc2ccc(N(C)C)cc2)cc1 | 5.62 µM [rising, partial curve, poor fit] |  |
| O=C(Nc1ccc2nc3n(c(=O)c2c1)CCCC3)c1ccccc1[N+](=O)[O-] |  | 23.1 µM [rising, partial curve, poor fit] |
| CN(C)/C=C/C(=O)c1ccn(S(=O)(=O)c2ccccc2)c1 | 10 µM [rising, partial curve, poor fit] |  |
| O=C(CCc1nc2cccnc2n1Cc1ccccc1)NCCc1ccc(Cl)cc1 | 15.8 µM [falling, single point] |  |
| COc1cc2nc(SCc3ccc(C(F)(F)F)cc3)n(Cc3cccs3)c(=N)c2cc1OC | 29.1 µM [rising, partial curve, poor fit] |  |
| CC(=O)Nc1ccc(Cl)cc1C(=O)O | 16.4 µM [falling, single point] |  |
| COc1ccc(/C=N/Nc2nc(C(=O)O)cs2)cc1 | 15.8 µM [falling, single point] |  |
| COc1ccc(CC(=O)Nc2ccc3nc(C)sc3c2)cc1OC | 0.461 µM [rising, full curve, poor fit] |  |
| O=C(Nc1cccc(F)c1)c1ccc(-c2ccccc2Cl)o1 | 16.4 µM [falling, partial curve, poor fit] |  |
| CCOC(=O)C1=CN(Cc2ccco2)S(=O)(=O)N(C)C1c1ccc(C(F)(F)F)cc1 (stereo not given) | 18.4 µM [falling, partial curve, poor fit] |  |

| Compound | AC50 [1] | AC50 [2] |
| --- | --- | --- |
| CCCCSC(=S)NC1CCS(=O)(=O)C1 (stereo not given) | 20.6 µM [falling, partial curve] |  |
| O=C1c2ccccc2NC(c2ccccc2Cl)N1N=C1CCCCCC1 (stereo not given) | 0.0651 µM [falling, full curve, poor fit] |  |
| COc1ccc(-c2ccc(/C=C3/C(=N)N4C=CSC4=NC3=O)o2)c([N+](=O)[O-])c1 | 6.51 µM [falling, single point] |  |
| CCOC(=O)c1ccc2[nH]c3ccccc3c2c1 | 1.12 µM [rising, partial curve] |  |
| CC12CCC(C(=O)Nc3ccccc3)(C/C1=N\O)C2(C)C (stereo not given) | 4.61 µM [rising, full curve, poor fit] |  |
| O=C1CN=C(Nc2ccc(Cl)cc2)N1c1ccccc1 | 35.5 µM [falling, single point] |  |
| COc1ccc2cc(C[C@@H]3CC[C@@H](CNC(N)=O)O3)ccc2c1 | 14.6 µM [rising, partial curve] |  |
| Cc1ccc(-c2csc3nc(CN(C)Cc4ccccc4)[nH]c(=O)c23)cc1 | 3.55 µM [rising, single point] |  |
| N=c1c2c(n(Cc3ccc(F)cc3)c3c1CCC3)CCC2 | 35.5 µM [falling, single point] |  |
| O=C(Nc1nccs1)c1cc(S(=O)(=O)N2CCOCC2)c(Cl)cc1Cl | 2.24 µM [falling, partial curve, poor fit] |  |
| COc1cc(NC(=S)NC(=O)c2ccccc2F)ccc1NC(=O)c1ccco1 | 13 µM [rising, partial curve] | 23.1 µM [falling, partial curve, poor fit] |
| CCN1C(=O)/C(=C/c2cnn(C)c2C)SC1=S | 3.66 µM [rising, partial curve, poor fit] |  |
| Cc1cc(C(C)(C)C)cc(C)c1CC1=NCCN1 | 7.08 µM [falling, partial curve, poor fit] |  |
| C=CCS/C(N)=N\N=C\c1c(O)ccc2ccccc12 | 35.5 µM [falling, single point] |  |
| N/C(=N\OC(=O)/C=C/c1ccccc1Cl)c1ccccn1 | 14.1 µM [falling, partial curve, poor fit] |  |
| Cc1cc(C)c(C(=O)N2CCCC(CNC(=O)C3(c4ccc(Cl)cc4)CC3)C2)c(=O)[nH]1 (stereo not given) | 3.98 µM [falling, partial curve, poor fit] |  |
| CCOC(=O)Cn1nnnc1CN(Cc1cccs1)Cc1cc2cc(C)cc(C)c2[nH]c1=O | 18.4 µM [falling, partial curve] |  |
| CCCCN(C(=O)CSc1nnc(-c2ccccc2)n1C)c1c(N)n(Cc2ccccc2)c(=O)[nH]c1=O | 0.82 µM [rising, full curve, poor fit] |  |
| COc1ccccc1N(CC(=O)NC1CCCCC1)S(=O)(=O)c1ccccc1 | 35.5 µM [falling, single point] |  |
| CC(=O)OC(/C(O)=C(\C#N)c1nc2ccccc2[nH]1)c1ccccc1 (stereo not given) | 25.1 µM [rising, partial curve, poor fit] |  |
| O=C(OCc1ccccc1Cl)c1ccc(-n2cnnc2)cc1 | 6.31 µM [rising, partial curve, poor fit] |  |

Retrieved by compound from the list above, 2 records:

| Compound | AC50 [1] | AC50 [2] |
| --- | --- | --- |
| CN(/N=C/c1ccc(O)cc1O)c1ncc(C(F)(F)F)cc1Cl | 10 µM [rising, partial curve] |  |
| CCOC(=O)C1=CN(Cc2ccco2)S(=O)(=O)N(C)C1c1ccc(C(F)(F)F)cc1 (stereo not given) | 18.4 µM [falling, partial curve, poor fit] |  |

(listing goes on)

| Compound | AC50 [1] | AC50 [2] |
| --- | --- | --- |
| Cc1ccc(C(=O)NCCSc2ccc(Cl)cc2)cc1S(=O)(=O)Nc1ccccc1 | 12.6 µM [falling, partial curve] | 35.5 µM [rising, partial curve, poor fit] |
| S=C(NCC1CCCO1)Nc1ccc(Cl)c(Cl)c1 (stereo not given) | 6.31 µM [falling, partial curve] |  |
| COC(=O)CN1C(=O)N/C(=C/c2ccccc2OC)C1=O | 0.794 µM [falling, full curve] |  |
| CCOc1ccccc1OCCOCCN1CC(C)OC(C)C1 (stereo not given) | 3.26 µM [rising, partial curve, poor fit] |  |
| CC(C)(C)c1ccc(-n2nc(C#N)c(Cl)cc2=O)cc1 | 11.2 µM [falling, partial curve, poor fit] | 12.6 µM [rising, partial curve, poor fit] |
| COc1ccc(NC(=O)C(=O)NCCN2CCN(C(=O)c3cccc(Br)c3)CC2)cc1 | 2.51 µM [rising, full curve, poor fit] |  |
| CCOC(=O)Cn1c(=O)c2c(nc(Br)n2Cc2ccc(Cl)cc2)n(C)c1=O | 3.66 µM [rising, partial curve, poor fit] |  |
| COc1cccc(NC(=O)c2oc3ccc(S(=O)(=O)N4CCC5(CC4)OCCO5)cc3c2C)c1 | 20 µM [falling, partial curve, poor fit] |  |
| COc1cccc(-n2c(SCc3cc(=O)oc4cc(O)c(O)cc34)nc3ccccc3c2=O)c1 | 29.1 µM [falling, single point] |  |
| O=C1C(=O)N(c2ccc(O)cc2)C(c2ccccc2[N+](=O)[O-])/C1=C(\O)c1ccccc1 (stereo not given) | 12.6 µM [falling, single point] |  |
| Cc1ccc(CCNC(=O)C2CCCN(S(=O)(=O)c3cccc4nsnc34)C2)cc1 (stereo not given) | 25.9 µM [falling, partial curve] |  |
| CC1CCN(S(=O)(=O)c2ccc3c(ccn3CC(=O)O)c2)CC1 | 14.1 µM [rising, partial curve, poor fit] |  |
| CCn1cnc2cc(NC(=O)c3ccc(C)cc3)ccc21 | 35.5 µM [falling, single point] |  |
| C#CCOCCOCCOCCNc1nc(N2CCN(C(=O)[C@H](CCCCN)n3cc(CCC(=O)O)nn3)CC2)nc(N2CCN(C(=O)[C@H](CCCCN)n3cc(CC(C)O)nn3)CC2)n1 (stereo not given in full) | 29.1 µM [rising, single point] |  |
| C#CCN1C(=O)S/C(=C\c2cc3c(cc2OC)OCO3)C1=O | 8.91 µM [rising, partial curve, poor fit] |  |
| COc1ccc(CC(=O)OCC(=O)Nc2ccc(Cl)cn2)cc1 | 29.1 µM [falling, single point] |  |
| COCCNC(=O)CSc1nc2nn(-c3ccccc3)c(=O)c-2c2n1CCCCC2 | 6.31 µM [falling, full curve, poor fit] |  |
| O=C1CCC(C(=O)Nc2ccccc2N2CCOCC2)=NN1 | 35.5 µM [rising, partial curve, poor fit] |  |
| CCc1ccccc1NC(=O)C1CCCN1S(=O)(=O)c1ccc(-c2ccc(=O)[nH]n2)s1 (stereo not given) | 0.355 µM [rising, partial curve, poor fit] |  |
| O=C(COc1cccc2cccnc12)Nc1cccc(S(=O)(=O)N2CCCC2)c1 | 6.51 µM [falling, single point] |  |
